Data published in patent publication US20030092760A1, “Therapeutic agent for renal failure” (Toray Industries, Inc., priority 2001, published 2003).

Test system: ⅚ nephrectomized rat model
Test: Effect on ⅚ nephrectomized rat model: renal functions
Format: in vivo, Wistar rats
Method: The effect of beraprost sodium on a ⅚ nephrectomized rat model, which has been widely used as a model animal for renal failure, was examined. Two-thirds of the left kidney was removed from each of 4-week-old male Wistar rats (Charles River Japan Inc.) with a razor, and all of the right kidney was then removed therefrom one week after. Three weeks after the initial surgery, blood was collected from each rat through the tail vein and serum creatinine and BUN levels were determined from the blood. At this point of time, the urine was also collected for 24 hours to determine the mass of proteins in the urine. The rats were allocated to one of the treatment groups by the stratifying continuous randomization method based on the mass of proteins in the urine and the body weight (n=8 per group). […] Three weeks after the initial surgery, beraprost sodium or captopril (SIGMA, i.e., a positive control) was orally administered to each rat twice a day everyday, beginning the day on which administration of a drug was started and continued through five weeks after the administration. The determination of the renal functions was performed both three weeks and five weeks after the initial administration of a drug. The photographic images of the renal tissue were observed only five weeks after the initial administration.

Compound | Body weight (100 μg/kg oral twice a day, five weeks after the administration of a drug) | Body weight (100 μg/kg oral twice a day, three weeks after the administration of a drug) | Body weight (300 μg/kg oral twice a day, five weeks after the administration of a drug) | Body weight (300 μg/kg oral twice a day, three weeks after the administration of a drug) | Body weight (50 mg/kg oral twice a day, five weeks after the administration of a drug) | Body weight (50 mg/kg oral twice a day, three weeks after the administration of a drug)
CC#CCC(C)[C@H](O)/C=C/C1[C@H](O)C[C@@H]2Oc3c(CCCC(=O)[O-])cccc3[C@H]12.[Na+] (mixture of isomers) [Beraprost sodium, beraprost sodium] | 228.7 ± 5.7 g | 215.5 ± 5.3 g | 245.8 ± 8.0 g | 221.0 ± 6.3 g | – | –
C[C@H](CS)C(=O)N1CCC[C@H]1C(=O)O [Captopril, captopril, reference compound] | – | – | – | – | 236.4 ± 5.7 g | 220.6 ± 5.4 g
